Laboratory results: PMC11171731
No constants are given. Whether binding was seen depends on the method and setting. In cells and extracts the contact can be indirect. Some results given as binding are weak or reduced against the parent protein; the word gives no strength. For some of these results: Where a sequence is shown, tags or fusion partners need not be part of it.

By UniProt entry, the sequences of proteins in these tests, tags left out. Residues count along the entry.
UniProt Q9NQB0: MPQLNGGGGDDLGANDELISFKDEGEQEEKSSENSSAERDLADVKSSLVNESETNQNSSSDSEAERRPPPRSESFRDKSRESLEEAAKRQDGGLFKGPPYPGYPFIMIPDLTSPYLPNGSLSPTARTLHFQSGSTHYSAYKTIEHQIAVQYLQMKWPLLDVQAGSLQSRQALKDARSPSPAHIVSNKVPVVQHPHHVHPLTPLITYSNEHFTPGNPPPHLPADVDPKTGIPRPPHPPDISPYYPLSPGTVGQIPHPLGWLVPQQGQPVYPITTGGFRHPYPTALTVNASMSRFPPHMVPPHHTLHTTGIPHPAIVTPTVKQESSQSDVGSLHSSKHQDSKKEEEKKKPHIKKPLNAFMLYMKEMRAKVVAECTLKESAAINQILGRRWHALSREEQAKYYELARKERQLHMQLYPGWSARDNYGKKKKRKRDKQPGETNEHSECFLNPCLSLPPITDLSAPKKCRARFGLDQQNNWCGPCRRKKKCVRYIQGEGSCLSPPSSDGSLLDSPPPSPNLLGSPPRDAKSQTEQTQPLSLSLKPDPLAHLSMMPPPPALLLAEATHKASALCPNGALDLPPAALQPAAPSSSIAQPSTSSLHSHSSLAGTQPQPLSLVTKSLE
UniProt Q9ULV1, residues 37-537: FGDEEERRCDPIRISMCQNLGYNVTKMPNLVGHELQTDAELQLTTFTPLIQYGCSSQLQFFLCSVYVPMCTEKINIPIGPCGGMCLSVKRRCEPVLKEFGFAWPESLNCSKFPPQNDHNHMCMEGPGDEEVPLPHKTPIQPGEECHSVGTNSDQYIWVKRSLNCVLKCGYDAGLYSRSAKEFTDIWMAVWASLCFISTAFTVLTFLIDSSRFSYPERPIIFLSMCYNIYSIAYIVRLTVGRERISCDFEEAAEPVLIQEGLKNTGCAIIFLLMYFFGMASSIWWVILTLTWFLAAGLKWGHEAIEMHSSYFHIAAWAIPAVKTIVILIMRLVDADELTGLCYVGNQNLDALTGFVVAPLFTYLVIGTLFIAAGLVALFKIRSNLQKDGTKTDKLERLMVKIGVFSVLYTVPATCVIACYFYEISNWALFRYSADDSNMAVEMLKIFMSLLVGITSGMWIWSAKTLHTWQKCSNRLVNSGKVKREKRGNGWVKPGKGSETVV
UniProt Q13467, residues 27-585: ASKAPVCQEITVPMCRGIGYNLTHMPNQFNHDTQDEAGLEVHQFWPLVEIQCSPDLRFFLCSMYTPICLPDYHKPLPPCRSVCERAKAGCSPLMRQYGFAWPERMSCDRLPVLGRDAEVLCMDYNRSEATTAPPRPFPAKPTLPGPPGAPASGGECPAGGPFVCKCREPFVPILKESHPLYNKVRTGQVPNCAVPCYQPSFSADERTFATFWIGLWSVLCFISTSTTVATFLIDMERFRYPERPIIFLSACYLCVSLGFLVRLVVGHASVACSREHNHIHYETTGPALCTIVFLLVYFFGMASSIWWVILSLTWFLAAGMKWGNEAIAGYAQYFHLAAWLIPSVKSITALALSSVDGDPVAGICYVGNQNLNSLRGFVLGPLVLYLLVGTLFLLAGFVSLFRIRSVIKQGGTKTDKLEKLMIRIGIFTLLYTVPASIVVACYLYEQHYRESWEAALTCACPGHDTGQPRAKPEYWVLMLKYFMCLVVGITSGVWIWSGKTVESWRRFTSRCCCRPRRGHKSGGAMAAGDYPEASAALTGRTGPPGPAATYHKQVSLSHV
UniProt Q9H461, residues 28-694: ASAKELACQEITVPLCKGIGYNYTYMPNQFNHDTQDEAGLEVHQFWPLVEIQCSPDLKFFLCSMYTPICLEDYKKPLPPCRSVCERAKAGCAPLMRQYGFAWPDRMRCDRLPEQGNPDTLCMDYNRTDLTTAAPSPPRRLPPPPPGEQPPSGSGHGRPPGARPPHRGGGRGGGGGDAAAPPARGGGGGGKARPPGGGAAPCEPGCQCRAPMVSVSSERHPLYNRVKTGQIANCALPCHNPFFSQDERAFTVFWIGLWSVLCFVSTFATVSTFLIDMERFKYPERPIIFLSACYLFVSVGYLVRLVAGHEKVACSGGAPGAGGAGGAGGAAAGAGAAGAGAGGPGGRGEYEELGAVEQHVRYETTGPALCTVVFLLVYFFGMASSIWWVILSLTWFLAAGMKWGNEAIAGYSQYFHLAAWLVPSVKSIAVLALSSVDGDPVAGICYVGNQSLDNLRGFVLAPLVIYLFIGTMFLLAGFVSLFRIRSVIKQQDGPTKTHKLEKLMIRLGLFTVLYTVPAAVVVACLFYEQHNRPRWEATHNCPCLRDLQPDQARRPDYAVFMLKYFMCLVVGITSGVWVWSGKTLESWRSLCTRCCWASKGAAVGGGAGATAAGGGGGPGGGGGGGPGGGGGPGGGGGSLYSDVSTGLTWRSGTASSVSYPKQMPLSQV
UniProt P49841: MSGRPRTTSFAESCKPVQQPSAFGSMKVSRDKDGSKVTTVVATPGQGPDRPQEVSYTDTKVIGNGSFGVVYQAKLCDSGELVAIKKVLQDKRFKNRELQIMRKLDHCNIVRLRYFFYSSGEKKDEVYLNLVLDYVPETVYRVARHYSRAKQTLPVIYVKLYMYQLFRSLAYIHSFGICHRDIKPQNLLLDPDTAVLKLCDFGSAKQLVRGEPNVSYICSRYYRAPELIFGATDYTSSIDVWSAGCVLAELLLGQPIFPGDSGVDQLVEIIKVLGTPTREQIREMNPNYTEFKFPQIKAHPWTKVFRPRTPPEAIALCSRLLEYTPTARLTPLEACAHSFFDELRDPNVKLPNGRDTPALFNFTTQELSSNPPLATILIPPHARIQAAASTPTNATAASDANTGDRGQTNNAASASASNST
UniProt Q9UJU2: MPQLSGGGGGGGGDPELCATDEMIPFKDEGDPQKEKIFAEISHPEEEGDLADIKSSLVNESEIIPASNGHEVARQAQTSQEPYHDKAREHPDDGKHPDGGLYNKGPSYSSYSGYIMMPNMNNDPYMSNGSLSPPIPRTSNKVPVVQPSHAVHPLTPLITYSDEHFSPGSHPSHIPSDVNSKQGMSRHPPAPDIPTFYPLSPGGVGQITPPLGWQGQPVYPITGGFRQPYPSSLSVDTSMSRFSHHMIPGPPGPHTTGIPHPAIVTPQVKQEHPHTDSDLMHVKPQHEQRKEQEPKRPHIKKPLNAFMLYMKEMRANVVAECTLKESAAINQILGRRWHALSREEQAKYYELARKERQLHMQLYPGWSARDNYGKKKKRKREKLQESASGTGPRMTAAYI

T1: C-terminally myc-tagged human PLC-β3 (human) (UniProt Q01970)
T1 sequence: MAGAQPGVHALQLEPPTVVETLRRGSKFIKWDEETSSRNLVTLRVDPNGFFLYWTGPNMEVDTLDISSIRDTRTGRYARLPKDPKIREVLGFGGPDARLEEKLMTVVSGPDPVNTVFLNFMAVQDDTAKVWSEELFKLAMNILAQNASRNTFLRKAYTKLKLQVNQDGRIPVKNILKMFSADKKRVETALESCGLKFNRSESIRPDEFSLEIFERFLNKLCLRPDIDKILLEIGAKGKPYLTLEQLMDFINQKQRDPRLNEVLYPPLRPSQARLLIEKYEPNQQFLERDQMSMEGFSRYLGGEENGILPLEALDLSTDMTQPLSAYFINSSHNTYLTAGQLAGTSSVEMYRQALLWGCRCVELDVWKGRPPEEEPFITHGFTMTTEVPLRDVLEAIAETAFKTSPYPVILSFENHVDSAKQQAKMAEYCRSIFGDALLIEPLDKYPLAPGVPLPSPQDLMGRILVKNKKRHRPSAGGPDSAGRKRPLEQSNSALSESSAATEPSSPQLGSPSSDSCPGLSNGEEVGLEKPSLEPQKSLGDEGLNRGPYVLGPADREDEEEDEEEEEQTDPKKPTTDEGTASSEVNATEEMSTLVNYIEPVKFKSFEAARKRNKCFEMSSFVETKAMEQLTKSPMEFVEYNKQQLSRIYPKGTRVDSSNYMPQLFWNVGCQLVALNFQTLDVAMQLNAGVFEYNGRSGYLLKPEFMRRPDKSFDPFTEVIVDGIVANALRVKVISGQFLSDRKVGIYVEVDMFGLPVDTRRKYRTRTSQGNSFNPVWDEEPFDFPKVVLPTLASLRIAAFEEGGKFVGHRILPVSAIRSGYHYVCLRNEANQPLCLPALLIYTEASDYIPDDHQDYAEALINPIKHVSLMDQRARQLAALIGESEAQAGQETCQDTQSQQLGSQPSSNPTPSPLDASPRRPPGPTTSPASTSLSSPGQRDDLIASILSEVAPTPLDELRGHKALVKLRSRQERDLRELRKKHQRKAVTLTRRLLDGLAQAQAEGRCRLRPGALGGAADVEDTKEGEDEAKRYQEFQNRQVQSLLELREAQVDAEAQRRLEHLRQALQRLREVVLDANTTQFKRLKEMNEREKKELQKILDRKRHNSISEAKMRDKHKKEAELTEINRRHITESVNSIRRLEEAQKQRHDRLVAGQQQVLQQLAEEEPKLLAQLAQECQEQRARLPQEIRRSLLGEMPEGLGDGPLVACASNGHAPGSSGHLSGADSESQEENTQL

T2: myc-tagged human PLC-β3 (human) (UniProt Q01970)
T2 sequence: T1 sequence

T3: PLC-β3 (proximity ligation assay) (UniProt Q01970)
T3 sequence: T1 sequence

B1: human PLC-β3 (construct of the anti-Dvl2 and anti-Tcf-4 immunoprecipitations) (enzyme, UniProt Q01970 1-1234)
chain: T1 sequence
B2: Wls (protein, UniProt Q5T9L3 1-541)
chain: MAGAIIENMSTKKLCIVGGILLVFQIIAFLVGGLIAPGPTTAVSYMSVKCVDARKNHHKTKWFVPWGPNHCDKIRDIEEAIPREIEANDIVFSVHIPLPHMEMSPWFQFMLFILQLDIAFKLNNQIRENAEVSMDVSLAYRDDAFAEWTEMAHERVPRKLKCTFTSPKTPEHEGRYYECDVLPFMEIGSVAHKFYLLNIRLPVNEKKKINVGIGEIKDIRLVGIHQNGGFTKVWFAMKTFLTPSIFIIMVWYWRRITMMSRPPVLLEKVIFALGISMTFINIPVEWFSIGFDWTWMLLFGDIRQGIFYAMLLSFWIIFCGEHMMDQHERNHIAGYWKQVGPIAVGSFCLFIFDMCERGVQLTNPFYSIWTTDIGTELAMAFIIVAGICLCLYFLFLCFMVFQVFRNISGKQSSLPAMSKVRRLHYEGLIFRFKFLMLITLACAAMTVIFFIVSQVTEGHWKWGGVTVQVNSAFFTGIYGMWNLYVFALMFLYAPSHKNYGEDQSNGDLGVHSGEELQLTTTITHVDGPTEIYKLTRKEAQE
B3: NLK (enzyme, UniProt Q9UBE8 1-527)
chain: MSLCGARANAKMMAAYNGGTSAAAAGHHHHHHHHLPHLPPPHLHHHHHPQHHLHPGSAAAVHPVQQHTSSAAAAAAAAAAAAAMLNPGQQQPYFPSPAPGQAPGPAAAAPAQVQAAAAATVKAHHHQHSHHPQQQLDIEPDRPIGYGAFGVVWSVTDPRDGKRVALKKMPNVFQNLVSCKRVFRELKMLCFFKHDNVLSALDILQPPHIDYFEEIYVVTELMQSDLHKIIVSPQPLSSDHVKVFLYQILRGLKYLHSAGILHRDIKPGNLLVNSNCVLKICDFGLARVEELDESRHMTQEVVTQYYRAPEILMGSRHYSNAIDIWSVGCIFAELLGRRILFQAQSPIQQLDLITDLLGTPSLEAMRTACEGAKAHILRGPHKQPSLPVLYTLSSQATHEAVHLLCRMLVFDPSKRISAKDALAHPYLDEGRLRYHTCMCKCCFSTSTGRVYTSDFEPVTNPKFDDTFEKNLSSVRQVKEIIHQFILEQQKGNRVPLCINPQSAAFKSFISSTVAQPSEMPPSPLVWE

Key:
[1] = biological target: T1, C-terminally myc-tagged human PLC-β3 (human); assay: co-IP; anti-c-Myc antibody on Dynabeads, lysates (1% NP-40 buffer) of co-transfected HEK293T cells 48 h after transfection, 10 min at RT, Western blot for the co-expressed protein; with or without co-expressed Gαq (WT or Q209L) in Figure S8A
[2] = biological target: T2, myc-tagged human PLC-β3 (human); assay: as above
[3] = biological target: T3, PLC-β3 (proximity ligation assay); assay: proximity ligation; cells co-transfected with vectors for the two proteins (CHO in the legend, HEK293T in the text), pairs of primary antibodies
Tcf-4 = Tcf-4 (UniProt Q9NQB0); assay: co-IP; anti-Dvl2 or anti-Tcf-4 antibody on Dynabeads, lysates (1% NP-40 buffer) of co-transfected HEK293T cells, Western blot for PLC-β3; control IgG

binding [1] | binding [2] | further results | Molecule
no binding | – | – | Fzd4 (from UniProt Q9ULV1 37-537) (receptor)
no binding | – | – | Fzd5 (from UniProt Q13467 27-585) (receptor)
no binding | – | – | Fzd8 (from UniProt Q9H461 28-694) (receptor)
– | binds | – | GSK3β (from UniProt P49841 1-420) (enzyme)
– | binds | – | Lef-1 (from UniProt Q9UJU2 1-399)
– | – | binding [3]: binds | Lef-1 (proximity ligation assay) (from UniProt Q9UJU2 1-399)
– | binds | – | Tcf-4 (from UniProt Q9NQB0 1-619)
– | – | binding (Tcf-4): binds weakly | B1
– | binds | – | B2
– | binds | – | B3
